The chains behind the UniProt entries cited, without tags or fusion partners. Where a name states a change or a piece, a line headed by the entry shows the natural chain unless it says otherwise.
UniProt Q9Y696: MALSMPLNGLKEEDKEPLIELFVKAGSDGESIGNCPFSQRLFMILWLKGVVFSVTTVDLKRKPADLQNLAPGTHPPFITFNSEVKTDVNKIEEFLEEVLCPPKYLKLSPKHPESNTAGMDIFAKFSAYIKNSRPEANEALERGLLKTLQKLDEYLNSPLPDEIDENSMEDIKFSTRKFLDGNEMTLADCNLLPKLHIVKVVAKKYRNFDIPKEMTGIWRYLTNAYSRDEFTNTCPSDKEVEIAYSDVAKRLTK
UniProt P61586: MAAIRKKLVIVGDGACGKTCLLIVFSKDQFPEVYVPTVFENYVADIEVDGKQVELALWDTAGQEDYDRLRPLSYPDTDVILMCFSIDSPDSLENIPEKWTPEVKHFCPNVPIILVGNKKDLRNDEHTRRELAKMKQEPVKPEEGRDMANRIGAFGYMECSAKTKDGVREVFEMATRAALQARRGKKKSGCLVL
UniProt Q01650: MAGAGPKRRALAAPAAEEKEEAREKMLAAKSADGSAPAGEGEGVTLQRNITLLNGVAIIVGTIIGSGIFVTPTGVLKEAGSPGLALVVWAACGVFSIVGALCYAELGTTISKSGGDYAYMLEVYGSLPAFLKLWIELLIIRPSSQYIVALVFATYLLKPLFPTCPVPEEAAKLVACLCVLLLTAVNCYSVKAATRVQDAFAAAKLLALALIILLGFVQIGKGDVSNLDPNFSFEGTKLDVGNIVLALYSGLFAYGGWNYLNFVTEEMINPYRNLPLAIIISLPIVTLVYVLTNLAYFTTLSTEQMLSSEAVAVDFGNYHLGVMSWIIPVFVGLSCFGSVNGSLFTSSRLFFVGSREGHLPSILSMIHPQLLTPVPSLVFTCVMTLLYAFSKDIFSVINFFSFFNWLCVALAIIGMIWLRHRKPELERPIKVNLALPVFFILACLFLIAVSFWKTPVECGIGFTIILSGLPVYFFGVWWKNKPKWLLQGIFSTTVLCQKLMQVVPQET
UniProt Q8WUM4: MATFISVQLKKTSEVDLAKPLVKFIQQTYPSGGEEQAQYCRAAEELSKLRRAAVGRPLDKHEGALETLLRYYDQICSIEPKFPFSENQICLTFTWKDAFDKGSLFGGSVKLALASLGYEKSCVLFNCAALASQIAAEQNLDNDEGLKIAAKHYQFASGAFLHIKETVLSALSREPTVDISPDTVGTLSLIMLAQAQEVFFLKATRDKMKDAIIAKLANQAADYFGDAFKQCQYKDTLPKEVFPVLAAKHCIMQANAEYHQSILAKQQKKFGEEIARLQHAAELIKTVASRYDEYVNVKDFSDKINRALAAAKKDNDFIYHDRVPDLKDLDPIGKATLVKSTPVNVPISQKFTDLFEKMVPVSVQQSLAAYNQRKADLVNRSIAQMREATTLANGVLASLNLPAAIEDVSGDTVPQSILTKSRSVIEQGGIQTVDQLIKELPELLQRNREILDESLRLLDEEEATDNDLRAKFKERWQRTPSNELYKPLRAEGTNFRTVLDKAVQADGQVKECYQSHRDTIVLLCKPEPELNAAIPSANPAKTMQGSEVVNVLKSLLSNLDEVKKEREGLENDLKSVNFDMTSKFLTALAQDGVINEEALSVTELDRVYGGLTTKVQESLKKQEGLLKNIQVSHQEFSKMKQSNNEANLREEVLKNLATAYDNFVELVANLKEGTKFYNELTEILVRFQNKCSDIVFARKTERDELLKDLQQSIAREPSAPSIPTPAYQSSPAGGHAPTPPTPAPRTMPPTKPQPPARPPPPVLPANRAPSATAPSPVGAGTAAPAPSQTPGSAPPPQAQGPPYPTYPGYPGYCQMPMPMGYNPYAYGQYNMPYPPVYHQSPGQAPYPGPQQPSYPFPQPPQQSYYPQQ
UniProt P15311: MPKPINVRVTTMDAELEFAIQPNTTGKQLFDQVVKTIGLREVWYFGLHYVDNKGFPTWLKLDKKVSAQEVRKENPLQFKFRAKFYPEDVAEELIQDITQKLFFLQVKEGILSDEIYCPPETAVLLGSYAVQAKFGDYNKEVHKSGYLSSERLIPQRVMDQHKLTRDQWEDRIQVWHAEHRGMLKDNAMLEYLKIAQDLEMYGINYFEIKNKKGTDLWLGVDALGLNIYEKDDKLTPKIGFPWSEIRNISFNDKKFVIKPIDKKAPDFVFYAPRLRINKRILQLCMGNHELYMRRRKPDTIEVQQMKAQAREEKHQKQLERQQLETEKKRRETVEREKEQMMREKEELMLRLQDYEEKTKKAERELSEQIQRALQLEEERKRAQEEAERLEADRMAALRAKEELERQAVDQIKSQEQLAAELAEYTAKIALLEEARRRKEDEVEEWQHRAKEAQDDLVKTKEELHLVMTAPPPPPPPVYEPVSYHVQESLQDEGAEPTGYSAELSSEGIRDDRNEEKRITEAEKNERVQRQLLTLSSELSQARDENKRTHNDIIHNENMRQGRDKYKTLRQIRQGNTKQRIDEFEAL
UniProt P52732: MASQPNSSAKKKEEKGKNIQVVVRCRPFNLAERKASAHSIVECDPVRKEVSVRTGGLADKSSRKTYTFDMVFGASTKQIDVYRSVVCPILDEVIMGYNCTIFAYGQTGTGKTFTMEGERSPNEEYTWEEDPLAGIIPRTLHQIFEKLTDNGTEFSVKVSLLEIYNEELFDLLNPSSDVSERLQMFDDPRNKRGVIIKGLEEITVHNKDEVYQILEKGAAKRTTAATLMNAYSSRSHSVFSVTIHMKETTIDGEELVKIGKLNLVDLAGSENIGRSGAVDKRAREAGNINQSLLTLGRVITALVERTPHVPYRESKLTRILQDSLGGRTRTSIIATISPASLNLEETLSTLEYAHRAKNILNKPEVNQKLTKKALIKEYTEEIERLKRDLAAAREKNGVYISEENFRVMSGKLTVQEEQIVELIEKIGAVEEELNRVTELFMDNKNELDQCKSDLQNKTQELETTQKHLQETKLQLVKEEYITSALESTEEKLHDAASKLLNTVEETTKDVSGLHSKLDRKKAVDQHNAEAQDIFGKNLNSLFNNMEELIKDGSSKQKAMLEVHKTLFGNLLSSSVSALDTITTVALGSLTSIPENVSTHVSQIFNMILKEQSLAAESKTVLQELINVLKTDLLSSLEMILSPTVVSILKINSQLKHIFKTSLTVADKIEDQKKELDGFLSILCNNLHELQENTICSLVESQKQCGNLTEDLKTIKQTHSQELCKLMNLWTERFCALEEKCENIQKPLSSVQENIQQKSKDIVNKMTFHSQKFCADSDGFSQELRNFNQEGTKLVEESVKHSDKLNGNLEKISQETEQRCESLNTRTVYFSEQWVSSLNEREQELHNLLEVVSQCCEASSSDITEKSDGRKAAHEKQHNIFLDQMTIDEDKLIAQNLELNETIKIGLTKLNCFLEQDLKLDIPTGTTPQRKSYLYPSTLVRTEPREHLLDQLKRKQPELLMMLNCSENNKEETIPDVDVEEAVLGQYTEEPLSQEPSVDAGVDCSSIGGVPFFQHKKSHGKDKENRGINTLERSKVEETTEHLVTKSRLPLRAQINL

In article PMC6933522:

B1: Protocadherin alpha-9 (protein, UniProt Q9Y5H5 30-950)
chain: QLHYSVPEEAEHGTFVGRIAQDLGLELAELVPRLFQLDSKGRGDLLEVNLQNGILFVNSRIDREELCGRSAECSIHLEVIVDRPLQVFHVDVEVKDINDNPPVFPATQKNLFIAESRPLDSRFPLEGASDADIGENALLTYRLSPNEYFFLDVPTSNQQVKPLGLVLRKLLDREETPELHLLLTATDGGKPELTGTVQLLITVLDNNDNAPVFDRTLYTVKLPENVSIGTLVIHPNASDLDEGLNGDIIYSFSSDVSPDIKSKFHMDPLSGAITVIGHMDFEESRAHKIPVEAVDKGFPPLAGHCTLLVEVVDVNDNAPQLTIKTLSVPVKEDAQLGTVIALISVIDLDADANGQVTCSLTPHVPFKLVSTYKNYYSLVLDRALDRESVSAYELVVTARDGGSPSLWATARVSVEVADVNDNAPAFAQSEYTVFVKENNPPGCHIFTVSARDADAQENALVSYSLVERRLGERSLSSYVSVHAESGKVYALQPLDHEELELLQFQVSARDAGVPPLGSNVTLQVFVLDENDNAPALLTPRMRGTDGAVSEMVLRSVGAGVVVGKVRAVDADSGYNAWLSYELQPETASASIPFRVGLYTGEISTTRALDETDAPRQRLLVLVKDHGEPALTATATVLVSLVESGQAPKSSSRASVGATGPEVTLVDVNVYLIIAICAVSSLLVLTLLLYTVLRCSAMPTEGECAPGKPTLVCSSAVGSWSYSQQRRQRVCSGEGKQKTDLMAFSPGLSPCAGSTERTGEPSASSDSTGKPRQPNPDWRYSASLRAGMHSSVHLEEAGILRAGPGGPDQQWPTVSSATPEPEAGEVSPPVGAGVNSNSWTFKYGPGNPKQSGPGELPDKFIIPGSPAIISIRQEPTNSQIDKSDFITFGKKEETKKKKKKKKGNKTQEKKEKGNSTTDNSDQ
B2: SLC13A3 (protein, UniProt Q8WWT9 1-602)
chain: MAALAAAAKKVWSARRLLVLLFTPLALLPVVFALPPKEGRCLFVILLMAVYWCTEALPLSVTALLPIVLFPFMGILPSNKVCPQYFLDTNFLFLSGLIMASAIEEWNLHRRIALKILMLVGVQPARLILGMMVTTSFLSMWLSNTASTAMMLPIANAILKSLFGQKEVRKDPSQESEENTAAVRRNGLHTVPTEMQFLASTEAKDHPGETEVPLDLPADSRKEDEYRRNIWKGFLISIPYSASIGGTATLTGTAPNLILLGQLKSFFPQCDVVNFGSWFIFAFPLMLLFLLAGWLWISFLYGGLSFRGWRKNKSEIRTNAEDRARAVIREEYQNLGPIKFAEQAVFILFCMFAILLFTRDPKFIPGWASLFNPGFLSDAVTGVAIVTILFFFPSQRPSLKWWFDFKAPNTETEPLLTWKKAQETVPWNIILLLGGGFAMAKGCEESGLSVWIGGQLHPLENVPPALAVLLITVVIAFFTEFASNTATIIIFLPVLAELAIRLRVHPLYLMIPGTVGCSFAFMLPVSTPPNSIAFASGHLLVKDMVRTGLLMNLMGVLLLSLAMNTWAQTIFQLGTFPDWADMYSVNVTALPPTLANDTFRTL
B3: SLC25A3 (protein, UniProt Q00325 50-362)
chain: AVEEQYSCDYGSGRFFILCGLGGIISCGTTHTALVPLDLVKCRMQVDPQKYKGIFNGFSVTLKEDGVRGLAKGWAPTFLGYSMQGLCKFGFYEVFKVLYSNMLGEENTYLWRTSLYLAASASAEFFADIALAPMEAAKVRIQTQPGYANTLRDAAPKMYKEEGLKAFYKGVAPLWMRQIPYTMMKFACFERTVEALYKFVVPKPRSECSKPEQLVVTFVAGYIAGVFCAIVSHPADSVVSVLNKEKGSSASLVLKRLGFKGVWKGLFARIIMIGTLTALQWFIYDSVKVYFRLPRPPPPEMPESLKKKLGLTQ
B4: GP1BB (protein, UniProt P13224 26-206)
chain: CPAPCSCAGTLVDCGRRGLTWASLPTAFPVDTTELVLTGNNLTALPPGLLDALPALRTAHLGANPWRCDCRLVPLRAWLAGRPERAPYRDLRCVAPPALRGRLLPYLAEDELRAACAPGPLCWGALAAQLALLGLGLLHALLLVLLLCRLRRLRARARARAAARLSLTDPLVAERAGTDES
B5: anillin (protein, UniProt Q9NQW6 1-1124)
chain: MDPFTEKLLERTRARRENLQRKMAERPTAAPRSMTHAKRARQPLSEASNQQPLSGGEEKSCTKPSPSKKRCSDNTEVEVSNLENKQPVESTSAKSCSPSPVSPQVQPQAADTISDSVAVPASLLGMRRGLNSRLEATAASSVKTRMQKLAEQRRRWDNDDMTDDIPESSLFSPMPSEEKAASPPRPLLSNASATPVGRRGRLANLAATICSWEDDVNHSFAKQNSVQEQPGTACLSKFSSASGASARINSSSVKQEATFCSQRDGDASLNKALSSSADDASLVNASISSSVKATSPVKSTTSITDAKSCEGQNPELLPKTPISPLKTGVSKPIVKSTLSQTVPSKGELSREICLQSQSKDKSTTPGGTGIKPFLERFGERCQEHSKESPARSTPHRTPIITPNTKAIQERLFKQDTSSSTTHLAQQLKQERQKELACLRGRFDKGNIWSAEKGGNSKSKQLETKQETHCQSTPLKKHQGVSKTQSLPVTEKVTENQIPAKNSSTEPKGFTECEMTKSSPLKITLFLEEDKSLKVTSDPKVEQKIEVIREIEMSVDDDDINSSKVINDLFSDVLEEGELDMEKSQEEMDQALAESSEEQEDALNISSMSLLAPLAQTVGVVSPESLVSTPRLELKDTSRSDESPKPGKFQRTRVPRAESGDSLGSEDRDLLYSIDAYRSQRFKETERPSIKQVIVRKEDVTSKLDEKNNAFPCQVNIKQKMQELNNEINMQQTVIYQASQALNCCVDEEHGKGSLEEAEAERLLLIATGKRTLLIDELNKLKNEGPQRKNKASPQSEFMPSKGSVTLSEIRLPLKADFVCSTVQKPDAANYYYLIILKAGAENMVATPLASTSNSLNGDALTFTTTFTLQDVSNDFEINIEVYSLVQKKDPSGLDKKKKTSKSKAITPKRLLTSITTKSNIHSSVMASPGGLSAVRTSNFALVGSYTLSLSSVGNTKFVLDKVPFLSSLEGHIYLKIKCQVNSSVEERGFLTIFEDVSGFGAWHRRWCVLSGNCISYWTYPDDEKRKNPIGRINLANCTSRQIEPANREFCARRNTFELITVRPQREDDRETLVSQCRDTLCVTKNWLSADTKEERDLWMQKLNQVLVDIRLWQPDACYKPIGKP

Experiments:
Assay in all cases: proximity labelling; BioID: HeLa S3 transfected with mycBirA*-CLIC4 (WT or C35A), 50 uM biotin for 12 h, arrested at monopolar cytokinesis; streptavidin pull-down, on-bead tryptic digestion, LC-MS/MS; proteins found in both replicates and not in the untransfected control
[1] = biological target: mycBirA*-CLIC4-WT (human) (UniProt Q9Y696)
[2] = biological target: mycBirA*-CLIC4-C35A (human) (UniProt Q9Y696)
[3] = biological target: mycBirA*-CLIC4-C35A (human) (UniProt Q9Y696); remark: listed apart in the source
[4] = biological target: mycBirA*-CLIC4-WT (human) (UniProt Q9Y696); remark: listed apart in the source

Molecule | binding [1] | binding [2] | binding [3] | binding [4]
RhoA (from UniProt P61586 1-193) | no binding |  |  | 
SLC7A5 (from UniProt Q01650 1-507) | binds | no binding |  | 
ALIX (from UniProt Q8WUM4 1-868) | binds | no binding |  | 
ezrin (from UniProt P15311 1-586) |  | no binding |  | 
KIF11 (from UniProt P52732 1-1056) | binds | no binding |  | 
B1 |  |  | no binding | binds
B2 |  |  | no binding | binds
B3 |  |  | no binding | binds
B4 |  |  | no binding | binds
B5 |  |  | no binding | 

Where two headings read alike, the source gives them in different places. Results are given in words; binding and its absence hold for the method and conditions named. In cells and extracts the contact can be indirect. Here binding means that the protein was enriched with, or labelled near, the bait; the list need not be complete. For some assays here: No binding means not detected with the bait.
